This note sets out measurements from paper PMC8967222.

Chains of the proteins cited; added tags and fusions are not shown.
UniProt P06537: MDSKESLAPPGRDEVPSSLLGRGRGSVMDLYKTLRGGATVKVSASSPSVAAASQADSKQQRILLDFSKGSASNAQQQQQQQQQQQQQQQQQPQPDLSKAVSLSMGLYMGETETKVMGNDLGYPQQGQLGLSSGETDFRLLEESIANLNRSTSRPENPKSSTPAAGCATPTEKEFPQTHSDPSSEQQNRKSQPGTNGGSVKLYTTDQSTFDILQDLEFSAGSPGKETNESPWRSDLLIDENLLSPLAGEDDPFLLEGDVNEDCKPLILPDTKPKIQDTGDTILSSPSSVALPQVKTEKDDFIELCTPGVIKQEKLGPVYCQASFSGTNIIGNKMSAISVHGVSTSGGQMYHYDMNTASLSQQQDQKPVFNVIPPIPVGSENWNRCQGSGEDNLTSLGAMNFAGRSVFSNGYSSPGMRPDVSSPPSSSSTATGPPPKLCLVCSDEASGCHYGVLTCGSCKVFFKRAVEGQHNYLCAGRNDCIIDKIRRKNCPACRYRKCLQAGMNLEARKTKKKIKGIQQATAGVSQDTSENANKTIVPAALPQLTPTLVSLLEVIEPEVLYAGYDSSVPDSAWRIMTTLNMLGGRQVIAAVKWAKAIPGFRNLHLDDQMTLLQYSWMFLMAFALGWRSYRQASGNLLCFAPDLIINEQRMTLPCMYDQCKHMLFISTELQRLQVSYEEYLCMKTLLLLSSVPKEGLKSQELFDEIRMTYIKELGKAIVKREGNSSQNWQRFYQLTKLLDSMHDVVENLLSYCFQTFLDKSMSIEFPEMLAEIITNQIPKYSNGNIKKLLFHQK
UniProt Q6KCD5: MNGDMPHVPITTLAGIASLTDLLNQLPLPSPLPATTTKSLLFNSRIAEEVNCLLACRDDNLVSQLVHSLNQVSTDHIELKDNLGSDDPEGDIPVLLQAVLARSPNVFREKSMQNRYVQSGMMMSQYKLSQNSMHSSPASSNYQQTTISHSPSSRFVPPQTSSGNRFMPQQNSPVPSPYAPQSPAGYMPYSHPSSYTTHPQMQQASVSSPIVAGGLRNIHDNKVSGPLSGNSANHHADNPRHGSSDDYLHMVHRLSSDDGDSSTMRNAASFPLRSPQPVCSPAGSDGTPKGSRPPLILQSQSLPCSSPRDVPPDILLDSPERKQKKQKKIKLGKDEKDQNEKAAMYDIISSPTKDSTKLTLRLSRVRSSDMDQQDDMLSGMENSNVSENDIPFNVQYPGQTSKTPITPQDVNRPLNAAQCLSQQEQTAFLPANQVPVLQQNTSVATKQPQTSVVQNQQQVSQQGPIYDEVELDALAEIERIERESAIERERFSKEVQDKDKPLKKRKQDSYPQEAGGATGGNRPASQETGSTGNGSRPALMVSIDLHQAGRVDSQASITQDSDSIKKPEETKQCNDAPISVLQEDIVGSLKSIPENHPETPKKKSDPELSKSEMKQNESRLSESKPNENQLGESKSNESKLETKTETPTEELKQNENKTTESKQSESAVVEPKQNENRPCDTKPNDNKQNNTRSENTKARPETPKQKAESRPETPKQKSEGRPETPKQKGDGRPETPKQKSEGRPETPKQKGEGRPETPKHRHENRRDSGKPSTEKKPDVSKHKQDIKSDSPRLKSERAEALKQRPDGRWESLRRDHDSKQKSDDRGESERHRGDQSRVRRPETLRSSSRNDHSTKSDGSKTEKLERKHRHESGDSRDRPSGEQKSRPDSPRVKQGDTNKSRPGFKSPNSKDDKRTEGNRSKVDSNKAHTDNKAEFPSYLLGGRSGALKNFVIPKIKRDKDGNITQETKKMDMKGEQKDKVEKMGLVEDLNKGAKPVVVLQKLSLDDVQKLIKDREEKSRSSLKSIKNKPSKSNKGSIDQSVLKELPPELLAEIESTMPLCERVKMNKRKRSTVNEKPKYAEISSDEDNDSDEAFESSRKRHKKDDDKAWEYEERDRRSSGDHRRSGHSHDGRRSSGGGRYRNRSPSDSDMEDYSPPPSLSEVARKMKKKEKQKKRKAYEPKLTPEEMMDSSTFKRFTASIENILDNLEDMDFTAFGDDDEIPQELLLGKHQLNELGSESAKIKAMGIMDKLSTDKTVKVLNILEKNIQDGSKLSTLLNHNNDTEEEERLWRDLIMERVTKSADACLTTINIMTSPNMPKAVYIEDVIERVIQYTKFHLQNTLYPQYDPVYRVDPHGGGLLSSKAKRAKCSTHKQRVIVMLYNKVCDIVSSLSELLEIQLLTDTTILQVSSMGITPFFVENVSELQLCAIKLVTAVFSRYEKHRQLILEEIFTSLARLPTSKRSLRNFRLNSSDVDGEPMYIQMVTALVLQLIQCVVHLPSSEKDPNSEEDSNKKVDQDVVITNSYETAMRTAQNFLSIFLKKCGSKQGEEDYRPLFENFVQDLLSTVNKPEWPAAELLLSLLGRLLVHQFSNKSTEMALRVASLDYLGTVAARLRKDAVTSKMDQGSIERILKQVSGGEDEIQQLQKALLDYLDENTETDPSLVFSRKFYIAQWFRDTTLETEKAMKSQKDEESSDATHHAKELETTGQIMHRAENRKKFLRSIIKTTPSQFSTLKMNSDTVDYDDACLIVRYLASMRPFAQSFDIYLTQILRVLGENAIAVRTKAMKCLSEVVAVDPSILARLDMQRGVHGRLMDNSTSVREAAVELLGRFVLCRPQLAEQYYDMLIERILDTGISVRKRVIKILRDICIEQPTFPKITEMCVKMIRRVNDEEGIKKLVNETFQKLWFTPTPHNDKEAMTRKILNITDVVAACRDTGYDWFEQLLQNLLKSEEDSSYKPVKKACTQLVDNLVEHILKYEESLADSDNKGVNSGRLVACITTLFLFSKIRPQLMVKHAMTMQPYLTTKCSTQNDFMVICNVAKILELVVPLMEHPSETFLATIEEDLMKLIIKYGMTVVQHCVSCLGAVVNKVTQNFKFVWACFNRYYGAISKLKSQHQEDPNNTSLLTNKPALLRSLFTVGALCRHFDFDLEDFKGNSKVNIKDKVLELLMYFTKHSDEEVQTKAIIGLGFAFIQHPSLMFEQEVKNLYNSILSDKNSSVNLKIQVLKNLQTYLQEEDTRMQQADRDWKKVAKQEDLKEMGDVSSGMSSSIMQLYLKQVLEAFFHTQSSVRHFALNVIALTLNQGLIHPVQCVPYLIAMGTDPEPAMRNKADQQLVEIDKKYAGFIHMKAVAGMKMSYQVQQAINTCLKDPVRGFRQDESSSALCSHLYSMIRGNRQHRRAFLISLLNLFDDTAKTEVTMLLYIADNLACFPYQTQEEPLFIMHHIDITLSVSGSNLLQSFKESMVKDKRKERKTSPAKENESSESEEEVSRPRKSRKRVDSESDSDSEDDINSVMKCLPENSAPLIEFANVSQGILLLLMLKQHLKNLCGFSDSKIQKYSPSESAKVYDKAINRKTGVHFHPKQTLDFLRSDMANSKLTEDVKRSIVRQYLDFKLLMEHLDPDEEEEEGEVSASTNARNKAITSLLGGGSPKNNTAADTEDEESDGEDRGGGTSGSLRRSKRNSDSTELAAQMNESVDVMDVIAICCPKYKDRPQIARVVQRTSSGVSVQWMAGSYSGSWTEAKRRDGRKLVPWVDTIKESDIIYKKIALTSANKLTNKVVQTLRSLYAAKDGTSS
UniProt Q9CW03: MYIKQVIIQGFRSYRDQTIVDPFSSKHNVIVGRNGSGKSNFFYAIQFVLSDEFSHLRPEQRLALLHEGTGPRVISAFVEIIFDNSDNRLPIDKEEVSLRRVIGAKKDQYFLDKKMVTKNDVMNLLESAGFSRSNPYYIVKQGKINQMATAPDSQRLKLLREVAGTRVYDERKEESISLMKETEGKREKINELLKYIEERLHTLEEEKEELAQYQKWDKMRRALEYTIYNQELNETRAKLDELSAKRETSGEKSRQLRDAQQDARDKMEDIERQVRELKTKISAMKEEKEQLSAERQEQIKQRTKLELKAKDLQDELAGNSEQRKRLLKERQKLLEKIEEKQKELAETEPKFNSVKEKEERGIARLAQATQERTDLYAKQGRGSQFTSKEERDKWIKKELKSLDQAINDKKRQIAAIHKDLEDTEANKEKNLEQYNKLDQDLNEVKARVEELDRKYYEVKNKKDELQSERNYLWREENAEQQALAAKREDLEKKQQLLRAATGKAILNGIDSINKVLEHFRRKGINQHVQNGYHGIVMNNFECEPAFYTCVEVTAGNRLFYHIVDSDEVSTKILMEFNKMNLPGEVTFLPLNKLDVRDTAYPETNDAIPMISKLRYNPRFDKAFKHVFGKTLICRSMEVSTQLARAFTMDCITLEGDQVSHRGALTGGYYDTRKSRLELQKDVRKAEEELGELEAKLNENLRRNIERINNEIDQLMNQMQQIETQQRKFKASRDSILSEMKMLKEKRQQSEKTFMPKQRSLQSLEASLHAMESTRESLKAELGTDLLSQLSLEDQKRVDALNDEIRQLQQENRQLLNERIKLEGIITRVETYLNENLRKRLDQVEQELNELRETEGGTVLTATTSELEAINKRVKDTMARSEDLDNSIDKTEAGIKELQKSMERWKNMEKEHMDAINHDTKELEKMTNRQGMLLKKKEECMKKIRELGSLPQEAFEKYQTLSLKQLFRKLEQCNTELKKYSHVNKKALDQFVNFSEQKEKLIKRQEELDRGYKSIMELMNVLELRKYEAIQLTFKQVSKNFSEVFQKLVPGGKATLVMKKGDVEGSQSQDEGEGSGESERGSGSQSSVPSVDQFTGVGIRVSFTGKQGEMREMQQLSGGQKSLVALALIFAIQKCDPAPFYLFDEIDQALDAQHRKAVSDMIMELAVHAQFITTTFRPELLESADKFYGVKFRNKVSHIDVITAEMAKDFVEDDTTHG

No constants are given. Whether binding was seen depends on the method and setting. In cells and extracts the contact can be indirect. Some binding calls cover weakened binding; strength is not graded here.

The target in test [1] is glucocorticoid (GC) receptor (GR) (mouse (endogenous in 3134 mammary carcinoma cells)) (UniProt P06537). As to the kind of experiment: proximity ligation; endogenous proteins in fixed (4% paraformaldehyde), permeabilised mammary cancer cells; Duolink kit DUO92101.
The target is the same in test [2]. As to the kind of experiment: co-IP; GR immunoprecipitation from cells treated with EtOH or dexamethasone (100 nM), fixed 12 min with 1% paraformaldehyde, lysed and sonicated (average DNA 500 bp); GR antibody beads overnight at 4°C; low-salt, high-salt, LiCl and TE washes; Western blot. In general terms: In western blotting, separated proteins are transferred to a membrane and probed.

Regarding “cohesin loader NIPBL (from UniProt Q6KCD5 1-2798)”, the binding result in test [1] and in test [2] was “binds” throughout.

As for SMC3 (from UniProt Q9CW03 1-1217), the binding result in test [1] and in test [2] was “binds” in each case.

B1: SMC1a (structural maintenance of chromosomes 1a) (protein, UniProt Q9CU62 1-1233)
chain: MGFLKLIEIENFKSYKGRQIIGPFQRFTAIIGPNGSGKSNLMDAISFVLGEKTSNLRVKTLRDLIHGAPVGKPAANRAFVSMVYSEEGAEDRTFARVIVGGSSEYKINNKVVQLHEYSEELEKLGILIKARNFLVFQGAVESIAMKNPKERTALFEEISRSGELAQEYDKRKKEMVKAEEDTQFNYHRKKNIAAERKEAKQEKEEADRYQRLKDEVVRAQVQLQLFKLYHNEVEIEKLNKELASKNKEIEKDKKRMDKVEDELKEKKKELGKMMREQQQIEKEIKEKDSELNQKRPQYIKAKENTSHKIKKLEAAKKSLQNAQKHYKKRKGDMDELEKEMLSVEKARQEFEERMEEESQSQGRDLTLEENQVKKYHRLKEEASKRAATLAQELEKFNRDQKADQDRLDLEERKKVETEAKIKQKLREIEENQKRIEKLEEYITTSKQSLEEQKKLEGELTEEVEMAKRRIDEINKELNQVMEQLGDARIDRQESSRQQRKAEIMESIKRLYPGSVYGRLIDLCQPTQKKYQIAVTKVLGKNMDAIIVDSEKTGRDCIQYIKEQRGEPETFLPLDYLEVKPTDEKLRELKGAKLVIDVIRYEPPHIKKALQYACGNALVCDNVEDARRIAFGGHQRHKTVALDGTLFQKSGVISGGASDLKAKARRWDEKAVDKLKEKKERLTEELKEQMKAKRKEAELRQVQSQAHGLQMRLKYSQSDLEQTKTRHLALNLQEKSKLESELANFGPRINDIKRIIQSREREMKDLKEKMNQVEDEVFEEFCREIGVRNIREFEEEKVKRQNEIAKKRLEFENQKTRLGIQLDFEKNQLKEDQDKVHMWEQTVKKDENEIEKLKKEEQRHMKIIDETMAQLQDLKNQHLAKKSEVNDKNHEMEEIRKKLGGANKEMTHLQKEVTAIETKLEQKRSDRHNLLQACKMQDIKLPLSKGTMDDISQEEGSSQGEESVSGSQRTSSIYAREALIEIDYGDLCEDLKDAQAEEEIKQEMNTLQQKLNEQQSVLQRIAAPNMKAMEKLESVRDKFQETSDEFEAARKRAKKAKQAFEQIKKERFDRFNACFESVATNIDEIYKALSRNSSAQAFLGPENPEEPYLDGINYNCVAPGKRFRPMDNLSGGEKTVAALALLFAIHSYKPAPFFVLDEIDAALDNTNIGKVANYIKEQSTCNFQAIVISLKEEFYTKAESLIGVYPEQGDCVISKVLTFDLTKYPDANPNPNEQ
In the case of B1, the binding result in test [2] was “binds”.
